Laboratory results from patent publication US12157778B2, “Peptides for activation of cell signaling in osteoprogenitor cells” (The Regents of the University of California, priority 2018, dated 2024).
Not every detail of the peptide structures is certain; ends, links or a residue may be inferred.

Columns and labels:
lymphocytes = assay: Lymphocyte binding to peptide-displaying beads; assay type: cell-based
[1] = system: Bone marrow stromal cells; assay: In vitro osteogenesis (alkaline phosphatase, alizarin red) in bone marrow stromal cells; assay type: cell-based, Mouse
Akt signaling pathway = assay: Akt signaling array in BMSC; assay type: cell-based; details: 6×10^−8M, BMSC in osteogenic medium, three days
[2] = In vivo anabolic effects, 2-month-old mice, 50 μg/kg SC 5×/week for 21 days
[3] = In vivo anabolic effects, 4-month-old mice, 5 μg/kg s.c. 5×/week for 21 days; details: for increase in femoral trabecular bone volume: vs PBS, YLL8 5 μg/kg, hPTH (1-34) 25 μg/kg
Description: FIGS. 10A-10D show the effects of YLL8 on bone formation in vivo. […] All mice received Alizarin red and Calcein at −7 and −2 days before euthanization.
Four-month-old female and male mice were treated with PBS control, YLL3 at 5 μg/kg, YLL8 at 5 μg/kg, or PTH at 25 μg/kg, sc., 5×/week for 28 days (n=4-6/group). Trabecular bone volume was obtained by micro CT scans at the distal femoral metaphysis. Osteocalcin and CTX-1 were measured at the serum.
In another similar study to determine whether YLLs would affect bone metabolism in vivo, YLL3 and YLL8 were injected into 4-month-old female and male mice at 5 μg/kg subcutaneously ([…]). hPTH (1-34) was injected s.c. at 25 μg/kg, 5×/week as a positive control. […] Both YLL8 and hPTH (1-34) increased femoral trabecular bone volume by approximately 130% in the female mice, compared to the PBS-treated mice. In the male mice, YLL8 increase femoral trabecular bone volume by approximately 70%, and hPTH (1-34) increased femoral trabecular bone volume by approximately 30% (FIG. 10A). Mineral apposition rate, a parameter corresponding to osteoblast activity, was increased by more than 70% in the females and about 30% in the males, resulting in an overall increase in surface-based bone formation rate (FIGS. 10A, 10B). The anabolic effect of YLLs was confirmed by increased trabecular bone mass measured at the distal femur metaphysis by micro CT and serum level of osteocalcin (FIG. 11).

[4] = Closed stabilized middle-femur fracture healing in Prx1-GFP/ERT mice; assay type: in vivo; details: day 10 following fracture

Which results are given for Cc1ccccc1NC(=O)Nc1ccc(CC(=O)N[C@@H](CCCCNC(=O)CCc2cccnc2)C(=O)N[C@@H](CCCC(=O)O)C(=O)NC2(C(N)=O)CCCCC2)cc1 [YLL8]?
affinity to lymphocytes (lymphocytes): low affinity; ALP levels ([1]; beads displaying peptide vs beads displaying scramble peptide (Con), day 10): increased ALP levels; mineralization nodule formation (alizarin red) ([1]; beads displaying peptide vs scramble peptide (Con), day 21): higher mineralization nodule formation; activation of members of the Akt signaling pathway (Akt signaling pathway): very similar profile with PTH; increase in surface-based trabecular bone formation rate ([2]; females, vs PBS): 86%; increase in trabecular bone volume ([2]; females, vs PBS): ~8%; increase in cortical bone volume ([2]; males): about 15%; increase in trabecular bone formation rate ([2]; males, vs PBS): 50%; increase in trabecular bone volume ([2]; males, vs PBS): ~6%; increase in femoral trabecular bone volume ([3]; female mice): approximately 130%; increase in mineral apposition rate ([3]; females): more than 70%; bone strength ([3]; females and males, three-point bending of femurs): increased bone strength; increase in femoral trabecular bone volume ([3]; male mice): approximately 70%; increase in mineral apposition rate ([3]; males): approximately 30%; cortical bone mass ([3]; males, daily treatment for 21 days): increased cortical bone mass; numbers of Prx1+ cells in callus [4]: greatly expanded
